According to PubChem BioAssay AID540256 (National Center for Advancing Translational Sciences (NCATS), 2011):
“And” between values parts separate entries of the source, which are not always exact repeats. Equal values may be shown once. Screen size: about 300,000 compounds; about 3,700 (1.2%) were called active. This list was built around the results that the source calls inconclusive (neither active nor inactive); the mix of calls is not that of the screen. Calls come from the whole dose curve; tested in HEK293 cells. Potencies of inconclusive entries are doubtful fits and often do not repeat.

experiment: qHTS for Inhibitors of binding or entry into cells for Lassa Virus; details: Lassa virus pseudotype entry inhibition, cell reporter; activity change, negative = inhibition: at 37.9 µM (top of the series) unless noted; note: nearly all actives have a fitted effect of over 50% in size
% is set by controls: 0 for no effect and ±100 for the full control effect; potency is the fitted concentration of half-maximal effect.

SMILES	Potency	activity change, negative = inhibition
Cc1cc(/C=C2/C(=N)N3C(=NC2=O)SN=C3S(C)(=O)=O)c(C)n1-c1ccccc1	inconclusive: 35.5 µM [inhibitor, single point]	
Nc1nc(CCl)nc(N(c2ccccc2)c2ccccc2)n1	inconclusive: 10 µM [inhibitor, partial curve, poor fit]	
COc1ccc(Sc2cnn(-c3ccccc3)c(=O)c2Cl)cc1	inconclusive: 12.6 µM [inhibitor, partial curve, poor fit]	
Fc1ccccc1N1CCN(c2nc3ccccc3n3nnnc23)CC1		inactive: -2.79%
COc1cc(C)c(N(C)C(=O)CN(C)C)cc1Nc1nc(Nc2cccc(F)c2C(N)=O)c2cc[nH]c2n1	inconclusive: 25 µM [inhibitor, partial curve, poor fit]	
Cc1ccc(-c2nnc(NC(=O)c3ccco3)s2)cc1	inconclusive: 25.1 µM [inhibitor, single point]	
Cc1ccc2nc(-c3ccc(NC(=O)CN4C(=O)NC(C)(c5ccc(OC(F)F)cc5)C4=O)cc3)sc2c1 (stereo not drawn)	inconclusive: 14.1 µM [inhibitor, single point]	
COc1ccc(OCC(=O)Nc2cccc3ncccc23)cc1		inactive: 0.292%
CCCCc1c(CCC)c(=N)c2ccccc2n1C	inconclusive: 29.1 µM [inhibitor, single point]	
O=C1CCCC2=C1C(c1cccnc1)Nc1ccccc1N2 (stereo not drawn)	inconclusive: 0.651 µM [inhibitor, single point]	
CCn1nccc1C(=O)Nc1ccc(S(=O)(=O)NC23CC4CC(CC(C4)C2)C3)cc1	inconclusive: 10 µM [inhibitor, partial curve]	
CCOc1ccc(C(=O)N2CC(=O)Nc3ccc(C)cc3C2c2ccc(F)cc2)cc1OCC (stereo not drawn)	inconclusive: 25.1 µM [inhibitor, single point]	
CCOc1ccccc1C(=O)NCCCCNC(=O)c1ccccc1OCC	inconclusive: 17.8 µM [inhibitor, partial curve, poor fit]	
CCOC(=O)Cn1cc([N+](=O)[O-])nc1[N+](=O)[O-]	inconclusive: 22.4 µM [inhibitor, single point]	
NC(=O)CSc1ncc(-c2ccccc2)[nH]1	inconclusive: 3.26 µM [activator, full curve]	
Cc1ccccc1C(=O)N1CCC(C(=O)N(CC(C)C)c2c(N)n(Cc3ccccc3)c(=O)[nH]c2=O)CC1		inactive: -0.0883%
COc1cc(/C=N/NC(=O)c2cccnc2)ccc1OC(=O)c1ccco1		inactive: -2.57%
CCOC(=O)c1c(C)n(C)c2ccc(OCCN(C)C)cc12		inactive: 15.6%
COc1cccc2cc(C(C)N(CCCN3CCOCC3)C(=S)Nc3ccc(C)cc3)oc12 (stereo not drawn)	inconclusive: 10 µM [inhibitor, partial curve, poor fit]	
O=c1c(Br)c(NCc2ccccc2)cnn1-c1ccc(F)cc1	inconclusive: 5.62 µM [inhibitor, single point]	
Cc1ccc(Cn2cccc(C(=O)Nc3nnc(C)s3)c2=O)cc1		inactive: 4.6% [at 46.1 µM]
CCCCOc1ccccc1C1NC(=O)NC(C)=C1C(=O)OCCOCC (stereo not drawn)		inactive: 0.902%

SMILES	Potency	activity change, negative = inhibition
CC(OC(=O)Cc1n[nH]c(=O)c2ccccc12)C(=O)Nc1ccc(S(N)(=O)=O)cc1 (stereo not drawn)		inactive: 27.5%
Cc1cc(Nc2ccccc2C)c2cccc(C)c2n1	inconclusive: 7.94 µM [inhibitor, partial curve, poor fit]	
Cc1ccc(CC(=O)Nc2ccc(C(=O)N3CCCCC3)cc2)cc1		inactive: -24.7%
Cc1c(NC(=O)c2cccs2)cccc1NC(=O)c1cccs1		inactive: -12.8%
COc1cccc(N2CCN(C(=O)c3cccn3-c3nnc(N4CCCCC4)s3)CC2)c1	inconclusive: 0.355 µM [inhibitor, full curve, poor fit]	
CCC1CCCCN1CCCNC(=O)c1cn(C)c2ccc(S(=O)(=O)N(C)C3CCCCC3)cc2c1=O (stereo not drawn)	inconclusive: 35.5 µM [activator, single point]	
COc1ccc(-c2cc(C(=O)Nc3ccc4c(c3)OCO4)no2)cc1	inactive and inconclusive: 35.5 µM [activator, single point]	
S=C(NCc1ccccc1)Nc1nccs1		inactive: -27.7% [at 46.1 µM]
O=C(CC1CCCCC1)Nc1ccc(-c2ccc3nncn3n2)cc1	inconclusive: 1 µM [inhibitor, partial curve, poor fit]	
COc1cccc(CNC(=O)Cc2ccc(OC)c(S(=O)(=O)N3CCOCC3)c2)c1	inconclusive: 12.6 µM [activator, partial curve, poor fit]	
CC1C/C(=N\NC(=O)CCc2ccc(S(=O)(=O)N3CCOCC3)cc2)CC(C)(C)C1 (stereo not drawn)	inconclusive: 3.16 µM [activator, single point]	
O=Cc1cn(Cc2ccc([N+](=O)[O-])cc2)c2ccccc12	active: 10.3 µM	
CC1(C)Cc2c(sc3nn[nH]c(=O)c23)CO1	inconclusive: 1.46 µM [inhibitor, partial curve, poor fit]	
Cc1ccc(-c2nc3ccccn3c2NCc2ccc3c(c2)OCO3)cc1	inconclusive: 29.1 µM [inhibitor, single point]	
COC(=O)C1C(c2ccc(OC)c(OC)c2)NC(c2ccc(OC)c(OC)c2)C(C(=O)OC)S1(=O)=O (stereo not drawn)		inactive: -0.84%
COc1ccccc1NC(=O)C/C(C)=N/NC(=O)c1ccccn1	inconclusive: 2.82 µM [activator, single point]	
CC1=Nc2cc(Cl)ccc2Oc2ccccc21		inactive: -6.44%
COC(=O)c1sc(N)c(C(=O)OC)c1COC(=O)c1c(C)noc1C	inconclusive: 4.11 µM [inhibitor, full curve, poor fit]	
COc1ccccc1CSc1ncc(-c2ccc([N+](=O)[O-])cc2)[nH]1	inconclusive: 35.5 µM [inhibitor, single point]	
Cc1cc(C)c(NC(=O)c2cc(C)nc3c2c(C)nn3-c2cccc(F)c2)c(C)c1	inconclusive: 2.24 µM [inhibitor, partial curve, poor fit]	
CCCCNC(=S)N(C)/N=C/c1ccc(OCC(=O)Nc2ccc(OC)cc2)c(OC)c1	inconclusive: 29.1 µM [inhibitor, single point]	

A few values from the entries so far:
activity change, negative = inhibition with COC(=O)C1C(c2ccc(OC)c(OC)c2)NC(c2ccc(OC)c(OC)c2)C(C(=O)OC)S1(=O)=O (stereo not drawn) is entered as inactive: -0.84%
Potency with COc1ccc(Sc2cnn(-c3ccccc3)c(=O)c2Cl)cc1 is entered as inconclusive: 12.6 µM [inhibitor, partial curve, poor fit]
